Paper PMC11264885
No constants are given. Whether binding was seen depends on the method and setting. In cells and extracts the contact can be indirect. Some entries that bind do so weakly or less than the wild type. Sequences can lack the tags named with a protein.

Molecular target: T1, Myc-tagged transforming growth factor β-activated kinase 1 (TAK1) (UniProt O43318)
T1 sequence: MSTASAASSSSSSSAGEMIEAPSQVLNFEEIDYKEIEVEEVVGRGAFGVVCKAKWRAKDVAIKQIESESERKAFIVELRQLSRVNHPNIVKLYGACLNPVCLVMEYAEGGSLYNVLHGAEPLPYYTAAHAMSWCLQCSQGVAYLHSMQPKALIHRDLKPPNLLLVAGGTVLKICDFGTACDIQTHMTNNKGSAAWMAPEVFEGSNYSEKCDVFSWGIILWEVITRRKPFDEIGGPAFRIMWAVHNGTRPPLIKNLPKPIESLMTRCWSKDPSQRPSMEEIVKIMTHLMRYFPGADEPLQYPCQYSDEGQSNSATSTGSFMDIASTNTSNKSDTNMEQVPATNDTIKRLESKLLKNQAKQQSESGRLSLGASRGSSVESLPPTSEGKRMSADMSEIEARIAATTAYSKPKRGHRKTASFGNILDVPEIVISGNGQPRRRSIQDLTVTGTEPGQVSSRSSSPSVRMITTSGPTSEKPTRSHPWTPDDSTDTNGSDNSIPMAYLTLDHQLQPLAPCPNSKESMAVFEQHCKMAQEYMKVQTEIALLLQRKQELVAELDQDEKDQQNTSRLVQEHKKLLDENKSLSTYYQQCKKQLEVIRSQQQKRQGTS
Experiment: co-IP; 293T cells co-transfected with Flag-tagged USP13 and Myc-tagged TAK1; lysates in IP lysis buffer incubated overnight at 4 °C with anti-Myc agarose or anti-FLAG M2 affinity gel; Western blotting

B1: Flag-tagged ubiquitin specific protease 13 (USP13) (enzyme, UniProt Q92995 1-863)
chain: MQRRGALFGMPGGSGGRKMAAGDIGELLVPHMPTIRVPRSGDRVYKNECAFSYDSPNSEGGLYVCMNTFLAFGREHVERHFRKTGQSVYMHLKRHVREKVRGASGGALPKRRNSKIFLDLDTDDDLNSDDYEYEDEAKLVIFPDHYEIALPNIEELPALVTIACDAVLSSKSPYRKQDPDTWENELPVSKYANNLTQLDNGVRIPPSGWKCARCDLRENLWLNLTDGSVLCGKWFFDSSGGNGHALEHYRDMGYPLAVKLGTITPDGADVYSFQEEEPVLDPHLAKHLAHFGIDMLHMHGTENGLQDNDIKLRVSEWEVIQESGTKLKPMYGPGYTGLKNLGNSCYLSSVMQAIFSIPEFQRAYVGNLPRIFDYSPLDPTQDFNTQMTKLGHGLLSGQYSKPPVKSELIEQVMKEEHKPQQNGISPRMFKAFVSKSHPEFSSNRQQDAQEFFLHLVNLVERNRIGSENPSDVFRFLVEERIQCCQTRKVRYTERVDYLMQLPVAMEAATNKDELIAYELTRREAEANRRPLPELVRAKIPFSACLQAFSEPENVDDFWSSALQAKSAGVKTSRFASFPEYLVVQIKKFTFGLDWVPKKFDVSIDMPDLLDINHLRARGLQPGEEELPDISPPIVIPDDSKDRLMNQLIDPSDIDESSVMQLAEMGFPLEACRKAVYFTGNMGAEVAFNWIIVHMEEPDFAEPLTMPGYGGAASAGASVFGASGLDNQPPEEIVAIITSMGFQRNQAIQALRATNNNLERALDWIFSHPEFEEDSDFVIEMENNANANIISEAKPEGPRVKDGSGTYELFAFISHMGTSTMSGHYICHIKKEGRWVIYNDHKVCASERPPKDLGYMYFYRRIPS
With B1 the binding was “binds”.
